# Screen size: about 59,000 compounds; about 6,500 (11%) were called active. This list was built around the results that the source calls inconclusive (neither active nor inactive); the mix of calls is not that of the screen. Cut-off read from the data, not from the text of the source: active = max dye-equivalent concentration above about 10 nM; inconclusive = mostly about 1.1 nM to 9.6 nM; inactive = weaker than that.
# Test: qHTS Assay for Spectroscopic Profiling in A350 Spectral Region
# Conditions: Compound autofluorescence, 340/450 nm, Alexa 350 dye-equivalents; hits give high values
row,Structure (SMILES),max dye-equivalent concentration
1,Cc1ccc(NS(=O)(=O)c2ccc(NC(=O)C3CCCO3)cc2)cc1 (configuration not stated),inactive
2,O=C(OCC(=O)N1CCN(C(=O)COC(=O)c2ccncc2)CC1)c1ccncc1,inconclusive: 4 nM
3,CN1/C(=C\C(=O)c2ccco2)C(C)(C)c2ccccc21,inconclusive: 4.1 nM
4,Cc1noc(C)c1CSc1nnnn1-c1ccc(Cl)cc1,inconclusive: 3.1 nM
5,CC(C)CC(C(=O)NCc1ccccn1)N1C(=O)c2ccccc2C1=O (configuration not stated),inconclusive: 2.4 nM
6,Cn1c(=O)[nH]c(=O)c2c1nc(N1CCOCC1)n2CCN1CCOCC1,inconclusive: 2.2 nM
7,CCOC(=O)Nc1ccc2c(c1)N(C(=O)CN(CC)CC)c1ccccc1C=C2,inconclusive: 1.1 nM
8,CCC(c1nnnn1Cc1ccc(F)cc1)N1CCN(C2CCCCC2)CC1 (configuration not stated),inconclusive: 1.9 nM
9,CCOc1ccc(N(Cc2cc3ccc(C)cc3[nH]c2=O)C(=O)COC)cc1,inconclusive: 1.7 nM
10,CN(CCO)Cc1ncccc1O,inactive
11,CCC1C(O)=C(c2ccccn2)C(=N)N1c1ccccc1 (configuration not stated),active: 14 nM
12,CCCS(=O)(=O)c1c(S(=O)(=O)CCC)c2cc(CC)ccn2c1C(=O)OC,inconclusive: 3.9 nM
13,CCOC(=O)C1CCN(CCC(=O)Nc2cccc(Cl)c2C)CC1,inconclusive: 2 nM
14,O=C(c1ccc(=O)[nH]c1)N(Cc1ccco1)C1(C(=O)NC2CCCC2)CCCCC1,inconclusive: 5.7 nM
15,CCOC(=O)c1oc2ccccc2c1NC(=O)C1CCCCC1,inconclusive: 8.7 nM
16,O=C1CN(C(=O)CCCc2c[nH]c3ccccc23)c2ccccc2N1,inconclusive: 1.2 nM
17,CCOC(=O)CSc1nnc(CNC(=O)c2cccs2)n1-c1cc(OC)ccc1OC,inactive
18,COc1cc(S(=O)(=O)N2CCN(C)CC2)c(OC)cc1Br,inactive
19,N#Cc1nc(-c2ccccc2Cl)oc1NCc1ccco1,inactive
20,O=C(NCCN1CCCCC1)c1c(O)c2ccccc2[nH]c1=O,inconclusive: 1.5 nM
21,CCOC(=O)c1[nH]c2ccc(OCC)cc2c1NC(=O)CN1CCC2(CC1)OCCO2,active: 140 nM
22,CN(C)c1ncc2nc(-c3ccc(F)cc3)c(=O)n(C)c2n1,inconclusive: 4.4 nM
23,COc1ccc(-c2nc3cnc(Nc4ccccc4)nc3n(Cc3cccs3)c2=O)cc1,inconclusive: 4.1 nM

row,Structure (SMILES),max dye-equivalent concentration
1,Cc1cc2ccccc2n1CCNC(=O)C1CCCC1,inactive
2,O=C(O)CCN1CCc2ccccc21,inconclusive: 2.4 nM
3,COc1ncnc2c1N[C@@](C)(O)c1c(F)c(F)c(F)c(F)c1S2,active: 250 nM
4,CC(C)(C)c1ccc(-c2nnc(SCc3ccc(Cl)cc3)n2-c2cccc(C(F)(F)F)c2)cc1,inactive
5,Cc1nc(-c2ccccc2)nc2[nH]c(=O)n(-c3ccccc3)c(=O)c12,inconclusive: 1.6 nM
6,COc1ccc(OC)c(C(=O)COC(=O)CNC(=O)C2CCCCC2)c1,inconclusive: 5.8 nM
7,CCN1C(=O)/C(=C\N2CCCc3ccccc32)SC1=S,active: 15 nM
8,COc1cc2c(cc1OC)CN(C(=O)Cc1ccc(OC)c(S(=O)(=O)N3CCOCC3)c1)CC2,inconclusive: 5.8 nM
9,Oc1ccc(Cl)cc1Cc1cc(Cl)cc(Cc2cc(Cl)ccc2O)c1O,inactive
10,CCCn1cc(S(=O)(=O)CC(=O)N2CCc3ccccc32)c2ccccc21,inconclusive: 1.7 nM
11,Cc1cc(NCCCn2ccnc2)n2c(nc3ccccc32)c1C#N,active: 1400 nM
12,COc1cccc(N(CC(=O)NC2CCCC2)C(=O)Cn2nnc(-c3ccc(C)cc3)n2)c1,inconclusive: 1.1 nM
13,Cn1c(=O)c(-c2ccc(F)cc2)nc2cnc(OCc3ccccc3)nc21,inconclusive: 3.7 nM
14,CC(=O)Nc1ccc(-c2nc(C)c(C(C)=O)n2O)cc1,inconclusive: 8.2 nM
15,CCn1c(SCC(=O)Nc2ccc3c(c2)OCCO3)nnc1-c1ccco1,inconclusive: 1.3 nM
16,N#Cc1c(N)nc2c(c1-c1ccncc1)CCCCCC2,active: 89 nM
17,CCCCn1c(SCC(=O)Nc2nnc(CC)s2)nc2c1c(=O)n(C)c(=O)n2C,inactive
18,N#CC(C#N)=c1ccc2c(c1)NC1(CCCCC1)N=2,inconclusive: 1.9 nM
19,CC(C)NC[C@@H](O)COc1cccc2ccccc12,inconclusive: 1.5 nM
20,O=c1c2[nH]c3ccc(F)cc3c2ncn1C1CCCCC1,active: 10 nM
21,CC(C)CCn1c(CN2CCN(Cc3ccccc3)CC2)nc2c1c(=O)[nH]c(=O)n2C,inconclusive: 1.5 nM
22,O=C(NCc1ccco1)C1(S(=O)(=O)c2ccc(Cl)cc2)CC1,inactive
23,CCc1nn2c(N3CCOCC3)cc(C)nc2c1-c1ccc(F)cc1,active: 290 nM

# Shown bar-delimited: part of the list above.
row | Structure (SMILES) | max dye-equivalent concentration
1 | Cc1ccc(NS(=O)(=O)c2ccc(NC(=O)C3CCCO3)cc2)cc1 (configuration not stated) | inactive
2 | O=C(OCC(=O)N1CCN(C(=O)COC(=O)c2ccncc2)CC1)c1ccncc1 | inconclusive: 4 nM
3 | CN1/C(=C\C(=O)c2ccco2)C(C)(C)c2ccccc21 | inconclusive: 4.1 nM
4 | Cc1noc(C)c1CSc1nnnn1-c1ccc(Cl)cc1 | inconclusive: 3.1 nM
5 | CC(C)CC(C(=O)NCc1ccccn1)N1C(=O)c2ccccc2C1=O (configuration not stated) | inconclusive: 2.4 nM
6 | Cn1c(=O)[nH]c(=O)c2c1nc(N1CCOCC1)n2CCN1CCOCC1 | inconclusive: 2.2 nM
7 | CCOC(=O)Nc1ccc2c(c1)N(C(=O)CN(CC)CC)c1ccccc1C=C2 | inconclusive: 1.1 nM
8 | CCC(c1nnnn1Cc1ccc(F)cc1)N1CCN(C2CCCCC2)CC1 (configuration not stated) | inconclusive: 1.9 nM
9 | CCOc1ccc(N(Cc2cc3ccc(C)cc3[nH]c2=O)C(=O)COC)cc1 | inconclusive: 1.7 nM
10 | CN(CCO)Cc1ncccc1O | inactive
11 | CCC1C(O)=C(c2ccccn2)C(=N)N1c1ccccc1 (configuration not stated) | active: 14 nM
12 | CCCS(=O)(=O)c1c(S(=O)(=O)CCC)c2cc(CC)ccn2c1C(=O)OC | inconclusive: 3.9 nM
13 | CCOC(=O)C1CCN(CCC(=O)Nc2cccc(Cl)c2C)CC1 | inconclusive: 2 nM
14 | O=C(c1ccc(=O)[nH]c1)N(Cc1ccco1)C1(C(=O)NC2CCCC2)CCCCC1 | inconclusive: 5.7 nM
15 | CCOC(=O)c1oc2ccccc2c1NC(=O)C1CCCCC1 | inconclusive: 8.7 nM
16 | O=C1CN(C(=O)CCCc2c[nH]c3ccccc23)c2ccccc2N1 | inconclusive: 1.2 nM
17 | CCOC(=O)CSc1nnc(CNC(=O)c2cccs2)n1-c1cc(OC)ccc1OC | inactive
18 | COc1cc(S(=O)(=O)N2CCN(C)CC2)c(OC)cc1Br | inactive
19 | N#Cc1nc(-c2ccccc2Cl)oc1NCc1ccco1 | inactive
20 | O=C(NCCN1CCCCC1)c1c(O)c2ccccc2[nH]c1=O | inconclusive: 1.5 nM
21 | CCOC(=O)c1[nH]c2ccc(OCC)cc2c1NC(=O)CN1CCC2(CC1)OCCO2 | active: 140 nM
22 | CN(C)c1ncc2nc(-c3ccc(F)cc3)c(=O)n(C)c2n1 | inconclusive: 4.4 nM
23 | COc1ccc(-c2nc3cnc(Nc4ccccc4)nc3n(Cc3cccs3)c2=O)cc1 | inconclusive: 4.1 nM
1 | Cc1cc2ccccc2n1CCNC(=O)C1CCCC1 | inactive
2 | O=C(O)CCN1CCc2ccccc21 | inconclusive: 2.4 nM
3 | COc1ncnc2c1N[C@@](C)(O)c1c(F)c(F)c(F)c(F)c1S2 | active: 250 nM

# More results.

row,Structure (SMILES),max dye-equivalent concentration
1,O=S(=O)(c1cccs1)N1CCC(Cc2ccccc2)CC1,inactive
2,COC(=O)Nc1sccc1C(=O)Nc1sccc1C(=O)OC,inconclusive: 9 nM
3,CCN1CCN(C(=O)c2cc3sccc3n2CC(=O)c2ccccc2)CC1,inconclusive: 1.9 nM
4,C[N+]1(C)CCC[C@@H](OC(=O)C(O)(c2ccccc2)c2ccccc2)C1,inactive
5,CCCCCCn1c(CN2CCC(C)CC2)nc2c1c(=O)n(C)c(=O)n2C,inactive
6,CCOC(=O)N1CCC(NS(=O)(=O)c2ccc3c(c2)C(C)(C)C(=O)N3C)CC1,inconclusive: 6.6 nM
7,COc1ccccc1NC(=O)N1CCN(c2ncccn2)CC1,inactive
8,Cc1ccccc1N(Cc1nnc2n1CCCCC2)C(=O)Nc1ccccc1,inconclusive: 1.1 nM
9,Cc1nc2nc(C)c(CCC(=O)NCCCN3CCN(c4cccc(Cl)c4)CC3)c(C)n2n1,inconclusive: 2.1 nM
10,O=S(=O)(c1ccccc1)c1nc(-c2ccco2)oc1NCCCN1CCOCC1,inactive
11,Cc1nc2ccc3nc(NC(=O)c4ccc5c(c4)OCCO5)sc3c2s1,inconclusive: 5.1 nM
12,CSc1nccn1CC(=O)Nc1ccc(F)cc1,inconclusive: 2 nM
13,Cc1cc(C)n(-c2nc(NCCO)c3c4c(sc3n2)CCCC4)n1,active: 53 nM
14,O=C(Nc1ccc2oc(-c3ccccc3Cl)nc2c1)c1cncc(Br)c1,inconclusive: 7.3 nM
15,O=C(CSc1nnc(Cc2cccs2)n1C1CCCCC1)N1CCCc2ccccc21,inactive
16,COCCN(C(=O)c1ccccc1)c1nnc(-c2cccnc2)s1,inconclusive: 1.3 nM
17,Cc1cnc(Nc2nc3ccccc3o2)nc1C(=O)Nc1cccc(C(F)(F)F)c1,inconclusive: 3.1 nM
18,Nn1c(-c2ccco2)n[nH]c1=S,inconclusive: 5 nM
19,O=S(=O)(NCc1cccnc1)c1cccs1,inactive
20,CC(C)n1c(=S)[nH]c2c1c(=O)[nH]c(=O)n2C,inconclusive: 1.9 nM
21,CCc1ccccc1NS(=O)(=O)c1ccc2[nH]cc(C(=O)NCc3ccco3)c(=O)c2c1,inactive
22,Cc1c(C(=O)O)oc2ccc(S(=O)(=O)NCc3ccccc3)cc12,inconclusive: 4.6 nM
23,COCCNc1nc(C(C)(C)C)nc2c1nnn2Cc1ccccc1Cl,inconclusive: 3.3 nM

row,Structure (SMILES),max dye-equivalent concentration
1,CCCCNS(=O)(=O)c1ccc(OC)c2ncccc12,inactive
2,OC1(c2cccc(C(F)(F)F)c2)CCNCC1,inconclusive: 1.2 nM
3,Cc1ccc(N=C2SCCCN2C(=O)c2ccco2)cc1Cl,inconclusive: 9.9 nM
4,Cc1nc2cc(C(=O)O)ccc2n1-c1ccc(F)cc1F,inconclusive: 1.4 nM
5,CC1CCCCN1CCNC(=O)c1ccc2c(=O)n(CCc3ccccc3)c(=O)[nH]c2c1 (configuration not stated),inconclusive: 6.7 nM
6,O=C(CN1C(=O)CSC1=O)Nc1ccc(F)c(F)c1F,inactive
7,COCCNC(=O)C(c1ccc(C)o1)N(C(=O)c1snc(C(N)=O)c1N)c1ccc(C)cc1 (configuration not stated),active: 73 nM
8,CCC1=C/C(=C/N(C)c2ccccc2)C(=O)S1,inconclusive: 2.4 nM
9,C=CCn1c(N)c(C(=O)Nc2ccccc2OC)sc1=S,inactive
10,Cc1cc(C(=O)OCCO)c(C#N)c(N)n1,active: 6200 nM
11,O=S(=O)(NCc1ccc2c(c1)OCO2)c1cccc2cccnc12,inconclusive: 4.7 nM
12,O=C1c2ccccc2C(=O)N1CCc1nn[nH]n1,inactive
13,CCOc1ccccc1Nc1ncccc1C(=O)N1CCCC1,inconclusive: 1.2 nM
14,N=c1c(C(=O)NCC2CCCO2)cc2c(=O)n3ccccc3nc2n1Cc1cccnc1 (configuration not stated),active: 6600 nM
15,CN(C)Cc1ccccc1-c1cncnc1Nc1ccccc1,inconclusive: 1.2 nM
16,Cc1ccccc1-n1nc(C)c2cc(C(=O)NCc3cccnc3)sc21,inconclusive: 8.9 nM
17,Cc1ccc(N(C(C)C(=O)Nc2ccccc2C(=O)N2CCOCC2)S(C)(=O)=O)cc1C (configuration not stated),inconclusive: 9.3 nM
18,c1cncc(-c2nc(-n3ccnc3)c3ccccc3n2)c1,inactive
19,O=C(CN(C(=O)c1cc2c(s1)CCC2)C1CCCC1)NCc1cccs1,inactive
20,O=C(O)[C@@H]1CCCN1c1ncnc2sc3c(c12)CCC3,inconclusive: 2.6 nM
21,COc1ccc(S(=O)(=O)C(C#N)c2nc3ccccc3nc2N2CCC(C)CC2)cc1 (configuration not stated),active: 27 nM
22,O=C(O)CCC(=O)N1CCN(c2nc3ccccc3s2)CC1,inconclusive: 1.1 nM
23,CC(C)OC(=O)c1nn2c(C(F)(F)F)cc(-c3ccc(Br)o3)nc2c1Br,inconclusive: 1.2 nM

# Reference: PubChem BioAssay AID590 (National Center for Advancing Translational Sciences (NCATS), 2007)
